For the test, the target named is T1, FLAG-tagged KRT23 (UniProt Q9C075).
T1 sequence: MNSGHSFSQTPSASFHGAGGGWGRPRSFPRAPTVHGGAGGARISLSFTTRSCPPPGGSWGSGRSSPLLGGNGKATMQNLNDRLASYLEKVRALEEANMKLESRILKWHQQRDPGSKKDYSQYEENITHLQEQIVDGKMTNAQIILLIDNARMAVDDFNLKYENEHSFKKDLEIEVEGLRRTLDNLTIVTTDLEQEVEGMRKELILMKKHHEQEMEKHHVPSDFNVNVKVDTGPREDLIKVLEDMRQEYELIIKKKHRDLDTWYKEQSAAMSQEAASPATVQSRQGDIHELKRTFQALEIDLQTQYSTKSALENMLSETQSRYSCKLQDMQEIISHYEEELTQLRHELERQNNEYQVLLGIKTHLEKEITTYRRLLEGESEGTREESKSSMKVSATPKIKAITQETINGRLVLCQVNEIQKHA
Kind of test: co-IP; HEK 293T cells transfected with Flag-KRT23 and/or VSV-G-14-3-3ε, lysed in RIPA buffer; precipitation with ANTI-FLAG M2-affinity agarose overnight at 4°C; immunoblot.

Chains of the proteins cited; added tags and fusions are not shown.
UniProt P62258: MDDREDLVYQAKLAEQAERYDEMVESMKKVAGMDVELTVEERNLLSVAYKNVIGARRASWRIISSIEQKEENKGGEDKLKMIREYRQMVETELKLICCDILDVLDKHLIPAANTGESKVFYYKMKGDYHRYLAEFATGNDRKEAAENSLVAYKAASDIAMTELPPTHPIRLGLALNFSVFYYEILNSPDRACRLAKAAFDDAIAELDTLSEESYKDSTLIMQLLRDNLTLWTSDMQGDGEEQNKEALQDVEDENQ

No constants are given. Whether binding was seen depends on the method and setting. Binding seen in cells or lysates may run through a third protein. Some results given as binding are weak or reduced against the parent protein; the word gives no strength. Tags and fused reporters may be left off the sequences shown.

“VSV-G-tagged 14-3-3ε (from UniProt P62258 1-255)”: the binding entry is on record as “binds”.
